Results are given in words; binding and its absence hold for the method and conditions named.
Experiments:
[1] = biological target: MOKV G_(1-436)* (soluble Mokola virus glycoprotein G ectodomain, fusion loops replaced by hydrophilic sequences) (Mokola virus) (UniProt P0C572); test: negative staining electron microscopy; both purified
[2] = biological target: MOKV G_(1-436)* (soluble Mokola virus glycoprotein G ectodomain, fusion loops replaced by hydrophilic sequences) (Mokola virus) (UniProt P0C572); test: SEC-MALS; pH 8; both purified

With “MOKV G_(1-436)* (soluble Mokola virus glycoprotein G ectodomain, fusion loops replaced by hydrophilic sequences) (from UniProt P0C572 20-455) (domain or fragment)” the binding [1] was “no binding” and the binding [2] was “no binding”.
